Results on 1 molecule are retold here after patent publication US20110212084A1.

These are yes or no findings as the source states them, for the method shown. Some results given as binding are weak or reduced against the parent protein; the word gives no strength.

This assay addresses cynomolgus IgE (recombinant chimaeric D12 variable region / cynomolgus IgE constant region) (cynomolgus monkey (constant region)). As to the kind of experiment: DELFIA epitope competition; unlabelled cynomolgus IgE competes with biotinylated human IgE for immobilised IgG.

B1: Antibody 33GL (germlined IgG) (antibody, V domains shown)
VH: EVQLLESGGGLVQPGGSLSLSCAAPGFTFSSYAMSWVRQAPGKGLEWVSAISGGSGGRTYYADSVKGRFTISKDNSKNTLYLQMNSLRAEDTAVYYCARHIAVAGTRGFDYWGRGTLVTVSS
VL: SYELTQPPSVSVSPGQTASITCSGDKLGDTYASWYQQKPGLSPALVIYQDDKRPSGIPERFSGSNSGNTATLTISGTQAMDEADYYCLAWDTRTSGAVFGGGTKLTVL
With B1, the binding result was “binds”.
